{"source": "patent EP4685144A1", "about": "“NON-FLUORESCENT COMPOUND AND USES THEREOF” (SFC Co., Ltd., priority 2023, dated 2024)", "origin": "cited, not measured here", "settings": "commercially available fluorescent compound; cited from earlier work", "note": "At least one structure is not confirmed: it was looked up by name or label, or the drawing left a doubt."}
{"compound": "O=C1OC2(c3ccc(O)cc3Oc3cc(O)ccc32)c2ccccc21", "note": "[fluorescein]", "values": [{"measurement": "emission / maximum emission", "value": "approximately 520 nm"}]}
